These are yes or no findings as the source states them, for the method shown. In cells and extracts the contact can be indirect. These calls come from enrichment with a bait or labelling near it, and not all partners need be listed.
Molecular target: eukaryotic elongation factor 1A1 (eEF1A1), endogenous in mouse sciatic nerve (mouse (endogenous in sciatic nerve)) (UniProt P10126)
Test: affinity purification with mass spectrometry; IP of eEF1A1 from mouse sciatic nerves at 2dpl compared to unlesioned nerves; beads eluted, SDS-PAGE, in-gel trypsin digestion, LC-MS/MS, MaxQuant

Amino acid sequences for entries named in this document (tags omitted).
UniProt P10126: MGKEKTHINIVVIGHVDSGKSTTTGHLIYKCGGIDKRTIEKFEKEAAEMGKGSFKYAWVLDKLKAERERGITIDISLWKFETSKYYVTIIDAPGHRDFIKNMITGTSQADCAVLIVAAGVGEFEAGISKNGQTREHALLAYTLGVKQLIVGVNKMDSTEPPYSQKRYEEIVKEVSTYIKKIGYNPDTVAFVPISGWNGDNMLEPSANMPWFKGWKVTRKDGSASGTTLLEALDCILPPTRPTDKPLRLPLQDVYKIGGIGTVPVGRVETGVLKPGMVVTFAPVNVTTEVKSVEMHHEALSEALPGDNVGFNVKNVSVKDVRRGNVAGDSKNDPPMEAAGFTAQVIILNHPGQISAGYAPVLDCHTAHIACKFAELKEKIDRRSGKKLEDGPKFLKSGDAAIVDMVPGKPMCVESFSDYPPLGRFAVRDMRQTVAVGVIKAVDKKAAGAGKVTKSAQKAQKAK
UniProt P97371: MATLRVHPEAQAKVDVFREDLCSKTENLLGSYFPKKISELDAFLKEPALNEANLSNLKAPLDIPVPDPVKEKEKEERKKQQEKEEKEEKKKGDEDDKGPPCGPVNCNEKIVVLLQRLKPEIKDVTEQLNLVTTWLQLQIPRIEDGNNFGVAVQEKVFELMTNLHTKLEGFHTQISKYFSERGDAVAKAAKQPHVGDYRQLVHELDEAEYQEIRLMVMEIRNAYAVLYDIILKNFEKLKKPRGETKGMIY
UniProt P97372: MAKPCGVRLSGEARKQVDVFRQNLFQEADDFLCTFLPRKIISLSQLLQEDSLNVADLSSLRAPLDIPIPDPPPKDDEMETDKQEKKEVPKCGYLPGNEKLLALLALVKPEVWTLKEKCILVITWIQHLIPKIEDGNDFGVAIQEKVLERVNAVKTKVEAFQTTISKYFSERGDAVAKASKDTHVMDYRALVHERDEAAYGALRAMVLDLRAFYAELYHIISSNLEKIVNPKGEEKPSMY
UniProt P42227: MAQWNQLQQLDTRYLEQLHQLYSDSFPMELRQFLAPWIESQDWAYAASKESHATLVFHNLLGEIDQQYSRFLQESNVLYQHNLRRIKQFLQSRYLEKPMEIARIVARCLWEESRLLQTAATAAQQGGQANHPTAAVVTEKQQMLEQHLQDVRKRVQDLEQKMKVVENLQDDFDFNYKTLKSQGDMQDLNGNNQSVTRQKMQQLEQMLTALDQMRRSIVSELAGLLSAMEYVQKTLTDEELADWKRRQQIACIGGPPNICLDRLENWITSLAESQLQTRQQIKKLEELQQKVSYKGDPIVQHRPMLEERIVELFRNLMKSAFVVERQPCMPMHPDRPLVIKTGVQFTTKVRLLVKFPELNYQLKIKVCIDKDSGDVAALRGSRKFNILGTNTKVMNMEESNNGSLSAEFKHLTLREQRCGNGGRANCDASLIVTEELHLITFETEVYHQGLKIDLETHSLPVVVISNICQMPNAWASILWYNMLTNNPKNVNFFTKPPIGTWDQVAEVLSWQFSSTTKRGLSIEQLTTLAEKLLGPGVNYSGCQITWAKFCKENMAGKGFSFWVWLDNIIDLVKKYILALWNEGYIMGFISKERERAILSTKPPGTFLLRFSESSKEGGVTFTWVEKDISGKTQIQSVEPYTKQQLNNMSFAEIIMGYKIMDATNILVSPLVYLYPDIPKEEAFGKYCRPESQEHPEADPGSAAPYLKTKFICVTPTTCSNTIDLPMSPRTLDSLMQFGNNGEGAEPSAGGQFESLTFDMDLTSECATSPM

binding | Substance
binds | Proteasome activator subunit 1, endogenous in mouse sciatic nerve (from UniProt P97371 1-249)
binds | Proteasome activator subunit 2, endogenous in mouse sciatic nerve (from UniProt P97372 1-239)
binds | Stat3, endogenous in mouse sciatic nerve (from UniProt P42227 1-770)

Source: PMC7347577
